Data on 1 substance can be found in publication PMC5840378.

Chains of the proteins cited; added tags and fusions are not shown.
UniProt P99999: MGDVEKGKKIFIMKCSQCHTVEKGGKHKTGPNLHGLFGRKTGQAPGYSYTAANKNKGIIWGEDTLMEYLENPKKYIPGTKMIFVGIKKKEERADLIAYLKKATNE
UniProt P62258: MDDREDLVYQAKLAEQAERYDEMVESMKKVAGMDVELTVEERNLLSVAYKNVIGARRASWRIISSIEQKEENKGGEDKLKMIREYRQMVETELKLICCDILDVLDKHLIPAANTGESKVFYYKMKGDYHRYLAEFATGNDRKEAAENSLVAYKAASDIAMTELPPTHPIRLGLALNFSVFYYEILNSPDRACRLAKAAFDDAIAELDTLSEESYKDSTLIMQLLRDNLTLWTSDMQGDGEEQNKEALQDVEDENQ

The assay addresses cytochrome c (Cc), endogenous, cytosolic fraction of CPT-treated HeLa cells (human (endogenous in HeLa)) (UniProt P99999). Description: co-IP; rabbit anti-human Cc serum added to 300 μg cytosolic fraction of HeLa cells treated with 20 μM CPT for 4 h; Protein A Sepharose; western blot for 14-3-3ε; IgG as control. In general terms: A western blot detects proteins with antibodies after separation by electrophoresis.

No constants are given. Whether binding was seen depends on the method and setting. In cells and extracts the contact can be indirect. Some results given as binding are weak or reduced against the parent protein; the word gives no strength.

Consider “14-3-3ε, endogenous, cytosolic fraction of HeLa cells (from UniProt P62258 1-255)”, for which the binding result was “binds”.
